Screening data, single-dose tests

From ChEMBL document CHEMBL3988442, “University of Dundee, Small-Polar-MMV Screening Library” (2021).

T. brucei: 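Whole-parasite assay of Trypanosoma brucei over 72 hours; the read-out is not stated. Concentration: 30 µM. Higher reads as stronger inhibition (inferred: compounds with an IC50 in retests scored well above the rest). Values scatter widely below zero; nearly all retest evidence comes from the higher of the two concentrations used. Size under these conditions: about 64,000 compounds, about 940 of them at 50% or above in at least one test.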
Leishmania in macrophages: 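Cell assay of Leishmania donovani living inside macrophages; the read-out is not stated. Concentration: 30 µM. Higher reads as stronger inhibition (inferred: compounds with an IC50 in retests scored well above the rest). About 69,000 compounds were tested under these conditions; 1.5% (about 1,000) showed 50% or more at least once.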

Results are given as percent effect.
The controls that fix the scale are not given in the record; negative values are as filed.
The compounds are a random part of those screened.
Two or more numbers in one place are separate tests of the same structure; such repeats can differ widely.
A dash means the value is not listed here; it may have been measured.

Compound	T. brucei	Leishmania in macrophages
Cn1c2ccc(F)cc2c2ncn(CCCN(CCO)CCO)c(=O)c21	-46.57%	33.05%
COCCC1(CNC(=O)NCC2CCCS2)CCCC1 (centres undefined)	-42.32%	-7.365%
c1c[nH]c(-c2cn(CCSc3cnn[nH]3)nn2)n1	-56.94%	5.353%
Cn1cnc2c1C(COCc1cccnc1)N(Cc1ccccc1)CC2 (centres undefined)	4.049%	-8.293%
CC(O)CN1CCC(CNCc2ccccc2F)CC1 (centres undefined)	-	14.91%
O=C(NCC(O)Cc1ccccc1)c1ccc2[nH]c(=O)[nH]c2c1 (centres undefined)	0.07321%	-8.359%
CC(C)c1nc(CC(=O)Nc2cnccc2O)cs1	-10.63%	-11.15%
Cc1oc(-c2ccc(F)cc2)nc1CN1CCOCS1(=O)=O	-129.7%	24.98%
CC(C)(C)OC(=O)N1CC(=O)N(CCc2ccccc2)CC(O)C1 (centres undefined)	-32.82%	-18.97%
COC(=O)NC1(C(=O)Nc2ccc(-c3cc[nH]n3)cc2)CCCC1	-26.57%	-12.59%
Cc1nc(CN2CCN(C(=O)c3sccc3C)CC2)cs1	-	16.17%
O=C(CCc1nc2cc(Br)cnc2[nH]1)NCCN1CCOCC1	-18.16%	12.49% and 10.07%
NC1CCCN(Cc2cccc(C(F)(F)F)c2)C1=O (centres undefined)	-40.92%	22.13%
CC(=O)N(C)CC(=O)Nc1cnc(-n2ccnc2C)nc1	-24.67%	-15.11%
Cc1cc(NCC2CCCCC2)n2ncnc2n1	-11.47%	34.17%
Cc1c(Cl)cccc1NC(=O)CCNc1ccc(C#N)cn1	-16.2%	-26.32%
CSCC[C@@H](CO)Nc1ccc(-c2nc(-c3ccccc3F)no2)cn1	-25.91%	-35.38%
O=C(Cc1ccc(F)cc1)N1CCCC(c2n[nH]c3nccnc23)C1 (centres undefined)	8.403%	1.469%
NC(=O)CNC(c1ccccc1)c1ccccc1	-60.12%	-16.74%
C=C(C)CN1CCC(NC(=O)Nc2cc(C(N)=O)ccc2OC)CC1	-26.45%	27.9%

Once more, the final 2:

With NC(=O)CNC(c1ccccc1)c1ccccc1 the screen gave T. brucei: -60.12%; Leishmania in macrophages: -16.74%.
With C=C(C)CN1CCC(NC(=O)Nc2cc(C(N)=O)ccc2OC)CC1 the screen gave T. brucei: -26.45%; Leishmania in macrophages: 27.9%.